Laboratory results: the supplement of paper PMC8612539
Converted amounts (≈) assume the structure as drawn. The source gives many values for each of these; only a part stands here.

System: Escherichia coli
Test: minimum inhibitory concentration (MIC)
Procedure: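 Broth microdilution MIC (Sensititre BOPO7F bovine plate, CLSI methods) of 19 antimicrobials against field isolates of P. multocida, M. haemolytica, H. somni (deep nasopharyngeal swabs) and E. coli, Enterococcus spp. (rectal swabs) from weaned dairy heifers. Incubation 16-24 h at 35 C. MIC is the lowest concentration preventing visible growth. Values with <= or > lie at the tested range limits. Trimethoprim-sulfamethoxazole is given as the trimethoprim component of a 1:19 mixture.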

CCCN1C[C@H](C)[C@@H](O)[C@](C)(O)[C@@H](CC)OC(=O)[C@H](C)[C@@H](O[C@H]2C[C@@](C)(OC)[C@@H](O)[C@H](C)O2)[C@H](C)[C@@H](O[C@@H]2O[C@H](C)C[C@H](N(C)C)[C@H]2O)[C@](C)(O)C[C@H]1C [Gamithromycin]
Conditions	minimum inhibitory concentration [µg/mL]
isolate (source animal id): 1	> 8
isolate (source animal id): 2	4 (≈ 5.15 µM)
isolate (source animal id): 3	8 (≈ 10.3 µM)
isolate (source animal id): 4	8 (≈ 10.3 µM)
isolate (source animal id): 5	8 (≈ 10.3 µM)
isolate (source animal id): 6	4 (≈ 5.15 µM)
isolate (source animal id): 7	4 (≈ 5.15 µM)
isolate (source animal id): 17	> 8
isolate (source animal id): 18	8 (≈ 10.3 µM)
isolate (source animal id): 19	8 (≈ 10.3 µM)
isolate (source animal id): 20	4 (≈ 5.15 µM)
isolate (source animal id): 21	8 (≈ 10.3 µM)
isolate (source animal id): 22	8 (≈ 10.3 µM)
isolate (source animal id): 23	8 (≈ 10.3 µM)
isolate (source animal id): 24	8 (≈ 10.3 µM)
isolate (source animal id): 25	8 (≈ 10.3 µM)
isolate (source animal id): 26	8 (≈ 10.3 µM)
isolate (source animal id): 27	4 (≈ 5.15 µM)
isolate (source animal id): 28	4 (≈ 5.15 µM)
isolate (source animal id): 29	8 (≈ 10.3 µM)
isolate (source animal id): 30	4 (≈ 5.15 µM)
isolate (source animal id): 31	4 (≈ 5.15 µM)
isolate (source animal id): 32	4 (≈ 5.15 µM)
isolate (source animal id): 33	4 (≈ 5.15 µM)
isolate (source animal id): 34	4 (≈ 5.15 µM)
isolate (source animal id): 35	8 (≈ 10.3 µM)
isolate (source animal id): 36	4 (≈ 5.15 µM)
isolate (source animal id): 37	4 (≈ 5.15 µM)
isolate (source animal id): 38	8 (≈ 10.3 µM)
isolate (source animal id): 39	8 (≈ 10.3 µM)
isolate (source animal id): 40	4 (≈ 5.15 µM)
isolate (source animal id): 41	> 8
isolate (source animal id): 42	4 (≈ 5.15 µM)
isolate (source animal id): 43	4 (≈ 5.15 µM)
isolate (source animal id): 44	8 (≈ 10.3 µM)
isolate (source animal id): 45	8 (≈ 10.3 µM)
isolate (source animal id): 46	4 (≈ 5.15 µM)
isolate (source animal id): 47	4 (≈ 5.15 µM)
isolate (source animal id): 48	8 (≈ 10.3 µM)
isolate (source animal id): 49	4 (≈ 5.15 µM)
isolate (source animal id): 50	4 (≈ 5.15 µM)
isolate (source animal id): 51	8 (≈ 10.3 µM)
isolate (source animal id): 52	4 (≈ 5.15 µM)
isolate (source animal id): 53	8 (≈ 10.3 µM)
isolate (source animal id): 54	2 (≈ 2.57 µM)
isolate (source animal id): 55	8 (≈ 10.3 µM)
isolate (source animal id): 56	8 (≈ 10.3 µM)
isolate (source animal id): 57	> 8
isolate (source animal id): 58	8 (≈ 10.3 µM)
isolate (source animal id): 59	8 (≈ 10.3 µM)
isolate (source animal id): 60	4 (≈ 5.15 µM)
isolate (source animal id): 61	> 8
isolate (source animal id): 62	8 (≈ 10.3 µM)
isolate (source animal id): 63	8 (≈ 10.3 µM)
isolate (source animal id): 64	8 (≈ 10.3 µM)
isolate (source animal id): 65	> 8
isolate (source animal id): 66	> 8
isolate (source animal id): 67	4 (≈ 5.15 µM)
isolate (source animal id): 68	8 (≈ 10.3 µM)
isolate (source animal id): 69	8 (≈ 10.3 µM)
isolate (source animal id): 70	> 8
isolate (source animal id): 71	8 (≈ 10.3 µM)
isolate (source animal id): 72	4 (≈ 5.15 µM)
isolate (source animal id): 73	8 (≈ 10.3 µM)
isolate (source animal id): 74	8 (≈ 10.3 µM)
isolate (source animal id): 75	8 (≈ 10.3 µM)
isolate (source animal id): 76	8 (≈ 10.3 µM)
isolate (source animal id): 77	4 (≈ 5.15 µM)
isolate (source animal id): 78	8 (≈ 10.3 µM)
isolate (source animal id): 79	8 (≈ 10.3 µM)
isolate (source animal id): 80	4 (≈ 5.15 µM)
isolate (source animal id): 81	8 (≈ 10.3 µM)
isolate (source animal id): 82	> 8
isolate (source animal id): 83	4 (≈ 5.15 µM)
isolate (source animal id): 84	8 (≈ 10.3 µM)
isolate (source animal id): 85	8 (≈ 10.3 µM)
isolate (source animal id): 86	> 8
isolate (source animal id): 87	8 (≈ 10.3 µM)
isolate (source animal id): 88	8 (≈ 10.3 µM)
isolate (source animal id): 89	8 (≈ 10.3 µM)
isolate (source animal id): 90	> 8
isolate (source animal id): 91	8 (≈ 10.3 µM)
isolate (source animal id): 92	4 (≈ 5.15 µM)
isolate (source animal id): 93	4 (≈ 5.15 µM)
isolate (source animal id): 94	> 8
isolate (source animal id): 95	4 (≈ 5.15 µM)
isolate (source animal id): 96	4 (≈ 5.15 µM)
isolate (source animal id): 97	4 (≈ 5.15 µM)
isolate (source animal id): 189	8 (≈ 10.3 µM)
isolate (source animal id): 190	8 (≈ 10.3 µM)
isolate (source animal id): 191	8 (≈ 10.3 µM)
isolate (source animal id): 192	4 (≈ 5.15 µM)
isolate (source animal id): 193	4 (≈ 5.15 µM)
isolate (source animal id): 194	8 (≈ 10.3 µM)
isolate (source animal id): 195	8 (≈ 10.3 µM)
isolate (source animal id): 196	8 (≈ 10.3 µM)
isolate (source animal id): 197	8 (≈ 10.3 µM)
isolate (source animal id): 198	4 (≈ 5.15 µM)
isolate (source animal id): 199	8 (≈ 10.3 µM)
isolate (source animal id): 200	8 (≈ 10.3 µM)
isolate (source animal id): 201	8 (≈ 10.3 µM)
isolate (source animal id): 202	8 (≈ 10.3 µM)
isolate (source animal id): 203	8 (≈ 10.3 µM)
isolate (source animal id): 204	8 (≈ 10.3 µM)
isolate (source animal id): 205	> 8
isolate (source animal id): 206	8 (≈ 10.3 µM)
isolate (source animal id): 207	8 (≈ 10.3 µM)
isolate (source animal id): 208	8 (≈ 10.3 µM)
isolate (source animal id): 209	8 (≈ 10.3 µM)
isolate (source animal id): 210	8 (≈ 10.3 µM)
isolate (source animal id): 211	8 (≈ 10.3 µM)
isolate (source animal id): 212	4 (≈ 5.15 µM)
isolate (source animal id): 213	8 (≈ 10.3 µM)
isolate (source animal id): 214	8 (≈ 10.3 µM)
isolate (source animal id): 215	4 (≈ 5.15 µM)
isolate (source animal id): 216	4 (≈ 5.15 µM)
isolate (source animal id): 217	8 (≈ 10.3 µM)
isolate (source animal id): 218	4 (≈ 5.15 µM)
isolate (source animal id): 219	8 (≈ 10.3 µM)
isolate (source animal id): 220	8 (≈ 10.3 µM)
